According to patent US6902881B2, “Compounds and methods for regulating cell differentiation” (priority 2000, dated 2005):

Assay: Distribution of biliverdine in isopycnic sucrose gradient fractions of oocyte homogenate
Set-up: species or system Xenopus laevis

Measured: Biliverdine in sucrose gradient fraction

C=CC1=C(C)/C(=C/C2=NC(=C\c3[nH]c(/C=C4\NC(=O)C(C)=C4C=C)c(C)c3CCC(=O)O)/C(CCC(=O)O)=C2C)NC1=O [Biliverdin, biliverdin IXα]
Not Present: fraction 1, LIPIDS | fraction 2, CYTOSOL | fraction 3, CYTOSOL | fraction 4, ENDOCYTOSED VESICLES | fraction 5, MULTI VESICULAR BODIES AND MITOCHONDRIA
